Results are given in words; binding and its absence hold for the method and conditions named. Some results given as binding are weak or reduced against the parent protein; the word gives no strength.
Biological target: T1, ADGRL1 construct vL-Lm (latrophilin-1) on NB2a cells (UniProt O88917)
T1 sequence: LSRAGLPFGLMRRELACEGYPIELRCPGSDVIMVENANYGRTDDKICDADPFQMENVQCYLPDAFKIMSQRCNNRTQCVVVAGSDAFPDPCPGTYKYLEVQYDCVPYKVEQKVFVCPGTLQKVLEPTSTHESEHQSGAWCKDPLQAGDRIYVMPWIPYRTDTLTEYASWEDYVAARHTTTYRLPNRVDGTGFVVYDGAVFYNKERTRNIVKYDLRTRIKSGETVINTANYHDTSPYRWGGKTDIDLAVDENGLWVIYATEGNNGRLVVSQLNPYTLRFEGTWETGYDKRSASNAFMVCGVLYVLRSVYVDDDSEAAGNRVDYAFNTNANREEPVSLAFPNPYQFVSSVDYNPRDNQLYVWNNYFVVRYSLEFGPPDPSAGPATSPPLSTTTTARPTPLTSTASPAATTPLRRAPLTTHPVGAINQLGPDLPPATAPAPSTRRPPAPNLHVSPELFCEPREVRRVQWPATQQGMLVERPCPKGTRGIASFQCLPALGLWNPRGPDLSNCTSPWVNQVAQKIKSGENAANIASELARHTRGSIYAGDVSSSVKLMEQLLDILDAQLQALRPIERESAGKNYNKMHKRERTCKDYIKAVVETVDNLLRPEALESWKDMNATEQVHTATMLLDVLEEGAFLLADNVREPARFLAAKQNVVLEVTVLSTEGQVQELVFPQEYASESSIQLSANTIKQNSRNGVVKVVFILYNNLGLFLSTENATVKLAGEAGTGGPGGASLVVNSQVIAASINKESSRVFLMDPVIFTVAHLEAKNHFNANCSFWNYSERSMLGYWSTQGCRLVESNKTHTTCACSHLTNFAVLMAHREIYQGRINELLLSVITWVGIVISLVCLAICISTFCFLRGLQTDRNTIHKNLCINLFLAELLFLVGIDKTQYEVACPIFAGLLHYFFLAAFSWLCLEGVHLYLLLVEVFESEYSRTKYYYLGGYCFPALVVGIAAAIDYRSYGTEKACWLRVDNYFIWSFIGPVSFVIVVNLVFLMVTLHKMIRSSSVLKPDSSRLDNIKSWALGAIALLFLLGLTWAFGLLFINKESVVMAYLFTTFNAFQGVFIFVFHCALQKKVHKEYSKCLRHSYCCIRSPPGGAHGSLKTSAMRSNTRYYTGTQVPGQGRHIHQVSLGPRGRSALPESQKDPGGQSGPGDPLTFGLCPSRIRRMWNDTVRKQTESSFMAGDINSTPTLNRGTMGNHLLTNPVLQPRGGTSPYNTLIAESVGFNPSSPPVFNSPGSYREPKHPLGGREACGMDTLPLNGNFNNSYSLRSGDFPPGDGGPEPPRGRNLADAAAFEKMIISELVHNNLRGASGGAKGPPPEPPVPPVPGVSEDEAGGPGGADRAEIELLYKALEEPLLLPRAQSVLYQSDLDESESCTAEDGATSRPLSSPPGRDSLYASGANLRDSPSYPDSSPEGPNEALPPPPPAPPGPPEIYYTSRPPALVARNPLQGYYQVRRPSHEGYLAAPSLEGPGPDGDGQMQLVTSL
Experiment: toxin binding to cells, centrifugation and immunoblot; only the binder purified

B1: α-Latrotoxin (ligand, UniProt P23631 21-1199)
chain: EGEDLTLEEKAEICSELELQQKYVDIASNIIGDLSSLPIAGKIAGTIAAAAMTATHVASGRLDIEQTLLGCSDLPFDQIKEVLENRFNEIDRKLDSHSAALEEITKLVEKSISVVEKTRKQMNKRFDEVMKSIQDAKVSPIISKINNFARYFDTEKERIRGLKLNDYILKLEEPNGILLHFKESRTPTDDSLQAPLFSIIEEGYAVPKSIDDELAFKVLYALLYGTQTYVSVMFFLLEQYSFLANHYYEKGYLEKYDEYFNSLNNVFLDFKSSLVGTGTSNNEGLLDRVLQVLMTVKNSEFLGLEKNGVDEMLNEKINLFNKIKEEIEGKQKMTLSETPENFAQISFDKDITTPIGDWRDGREVRYAVQYASETLFSKISHWSDPVSVREKACPTLRMPVDQTRRNVLVFRKFDSSKPQLVGEITPYLSNFIDIDRDLYNAASNPDSAVGFKEFTKLNYDGANIRATFDHGRTVFHAAAKSGNDKIMFGLTFLAKSTELNQPDKKGYTPIHVAADSGNAGIVNLLIQRGVSINSKTYHFLQTPLHLAAQRGFVTTFQRLMESPEININERDKDGFTPLHYAIRGGERILEAFLNQISIDVNAKSNTGLTPFHLAIIKNDWPVASTLLGSKKVDINAVDENNITALHYAAILGYLETTKQLINLKEINANVVSSPGLLSALHYAILYKHDDVASFLMRSSNVNVNLKALGGITPLHLAVIQGRKQILSLMFDIGVNIEQKTDEKYTPLHLAAMSKYPELIQILLDQGSNFEAKTNSGATPLHLATFKGKSQAALILLNNEVNWRDTDENGQMPIHGAAMTGLLDVAQAIISIDATVVDIEDKNSDTPLNLAAQNSHIDVIKYFIDQGADINTRNKKGLAPLLAFSKKGNLDMVKYLFDKNANVYIADNDGMNFFYYAVQNGHLNIVKYAMSEKDKFEWSNTDNNRRDECPNEECAISHFAVCDAVQFDRIEIVKYFVGTLGNFAICGPLHQAARYGHLDIVKYLVEEEFLSVDGSKTDTPLCYASENGHFTVVQYLVSNGAKVNHDCGNGMTAIDKAITKNHLQVVQFLAANGVDFRRKNSRGTTPFLTAVAENALHIAEYLIREKRQDININEQNVDKDTALHLAVYYKNLQMIKLLIKYGIDVTIRNAYDKTALDIAIDAKFSNIVEYLKTKSGKFRR
In the case of B1, the binding is reported as “binds”.

Source: publication PMC12300799
